No constants are given. Whether binding was seen depends on the method and setting. Some results given as binding are weak or reduced against the parent protein; the word gives no strength.
Key:
[1] = biological target: Biotinylated complete Aβ1-42 peptide (human sequence, Bachem) (human); experiment: peptide library ELISA, positive control
[2] = biological target: Aβ1-42 peptide, biotinylated (Anaspec); experiment: ELISA on longer biotinylated Aβ peptides
[3] = biological target: Aβ1-40 peptide, biotinylated (Anaspec); experiment: ELISA on longer biotinylated Aβ peptides
[4] = biological target: Biotinylated complete Aβ1-42 peptide (human sequence, Bachem) (human); experiment: ELISA on longer biotinylated Aβ peptides
[5] = biological target: Oligomer-enriched preparation of the Aβ1-42 peptide (W. M. Keck Facility peptide); experiment: ELISA on SEC fractions
[6] = biological target: Monomer-enriched preparation of the Aβ1-42 peptide (W. M. Keck Facility peptide); experiment: ELISA on SEC fractions

binding [1] | binding [2] | binding [3] | binding [4] | binding [5] | binding [6] | Binder
binds | binds | binds | binds | – | – | ACI-11-Ab-9 monoclonal antibody (antibody, V domains shown) VH: QVQLQQSDAELVKPGASVKISCKVSGYTFTDHTIHWMKQRPEQGLEWIGYIYPRDGSTKYNEKFKGKATLTADKSSSTAYMQLNSLTSEDSAVYFCARDYGYAFDYWGQGTTLTVSS VL: QAVVTQESALTTSPGGTVILTCRSSTGAVTTSNYANWVQEKPDHLFTGLIGGTSNRAPGVPVRFSGSLIGDKAALTITGAQTEDDAMYFCALWYSTHYVFGGGTKVTVL
binds | binds | binds | binds | binds | binds | ACI-12-Ab-11 monoclonal antibody (antibody, V domains shown) VH: QVQLQQSDAELVKPGASVKISCKVSGYTFTDHTIHWMKQRPEQGLEWIGYIYPRDGSTKYNEKFKGKATLTADKSSSTAYMQLNSLTSEDSAVYFCARDYGYAFDYWGQGTTLTVSS VL: QAVVTQESALTTSPGGTVILTCRSSTGAVTTSNYANWVQEKPDHLFTGLIGGTSNRAPGVPVRFSGSLIGDKAALTITGAQTEDDAMYFCALWYSTHYVFGGGTKVTVL
